Among all 340,000 compounds or so, about 170 (0.05%) were called active. This list was built around the results that the source calls inconclusive (neither active nor inactive); the mix of calls is not that of the screen. Calls follow the shape of the dose curve; as a rule, active = well fitted inhibition curve with a large enough effect in the signal ratio, with a control signal flat (not every such curve was filed as active); inconclusive = small, poorly fitted or top-dose-only effect, or effect the other way, or a change in a side signal; inactive = flat fitted curve, though single readings scatter; the % refers to the signal ratio. Potencies beside an inconclusive call are fits to weak or partial responses and may not hold up.
test: qHTS Assay to Find Inhibitors of Chronic Active B-Cell Receptor Signaling; conditions: ABC-DLBCL IkBa-CBG/CBR reporter, luminescence ratio (green luciferase fused to IkBa over red control in TMD8 lymphoma cells), 4 h; activity change, negative = inhibition: at 46.1 µM (top of the series) unless noted;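 as to activity change, negative = inhibition: plate controls were basal doxycycline-induced cells for no effect and cells given 10 µM MG132 for full effect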
Outline: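 Cell line TMD8 (human ABC DLBCL), stably expressing tet-inducible CBG68-IkBa fusion and CBR; IMDM/0.5% FBS; cpd up to 46 uM; dox induction, 4 h, 37C/5% CO2; dual luminescence; green/red ratio; MG132 control.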
Potency is read from the fitted curve at half-maximal effect.

| SMILES | activity change, negative = inhibition | Potency |
| --- | --- | --- |
| O=C(c1ccc(N2CCN(C(=O)c3ccc(F)c(F)c3)CC2)cc1)c1cccc(F)c1 | inconclusive: -4.66% | – |
| COc1ccc(-c2nnn(CC(=O)N(CC(=O)NC3CCCC3)Cc3ccco3)n2)cc1OC | inconclusive: 0.103% | – |
| O=C(CSC1=NCCS1)NCc1ccco1 | inactive | – |
| Cc1ccccc1Oc1ccc(-c2nc(N)nc(N)n2)cc1 | inconclusive: -9.49% | – |
| COc1cc(/C=C/c2cc(OC(C)=O)c3ccccc3n2)c(OC(C)=O)c([N+](=O)[O-])c1 | – | inconclusive: 0.92 µM [rising, full curve, poor fit] |
| Cc1ccccc1-c1noc(-c2ccc(O)cc2)n1 | inactive | – |
| Cc1cc(C)nc(NC(=O)C(c2ccccc2)c2ccccc2)c1 | inconclusive: 11.5% | – |
| CCOP(=O)(c1ccccc1)c1nc(-c2ccccc2C)oc1N1CCCCC1 (stereo not given) | – | inconclusive: 16.4 µM [falling, single point] |
| CC(C)N(Cc1ccccc1)C(=O)CN1C(=O)NC2(CCCC2)C1=O | inconclusive: -0.385% | – |
| Cc1ccccc1C(=O)NCCCCc1ccccc1 | – | inconclusive: 3.26 µM [falling, partial curve, poor fit] |
| Cc1ccc(/C=N/n2c(-c3ccc(Cl)cc3)n[nH]c2=S)o1 | inconclusive: 5.21% | – |
| CCOC(=O)c1cnc2ccc(OCC)cc2c1NCCCN1CCOCC1 | inconclusive: -6.6% | – |
| CCC(C)(C)n1nnnc1CN1CCc2ccccc21 | inconclusive: 9.92% | – |
| COc1ccc(Cl)cc1NC(=O)Nc1cc(C)on1 | – | inconclusive: 35.5 µM [rising, single point] |
| Cc1ccc(Cn2nc(C)c(C(=O)NCC(c3cccs3)N3CCOCC3)c2Cl)cc1 (stereo not given) | – | inconclusive: 20.6 µM [falling, partial curve, poor fit] |
| CCOC(=O)CC(=O)CSc1ncnc2c1cnn2-c1ccccc1 | inconclusive: -5.63% | – |
| Cc1ccc(/C=N/NC(=O)c2cc(C3CC3)nc3ccccc23)o1 | – | inconclusive: 23.1 µM [falling, single point] |
| O=C(CC(c1ccccc1)c1ccccc1)Nc1ccc(Cl)cn1 | – | inconclusive: 2.91 µM [rising, single point] |
| Cc1nc(C)c(C(=O)N2CCCC(C(=O)c3ccc4ccccc4c3)C2)s1 (stereo not given) | inconclusive: 0.901% | – |
| N#CC1=C(S)N=C(N)C(c2nc(-c3ccccc3)cs2)C12CCCCC2 (stereo not given) | – | inconclusive: 25.9 µM [rising, partial curve, poor fit] |
| CCCCC[C@@H]1C=C(C(=O)O)[C@H](c2ccc(OC)c(OC)c2)N1S(=O)(=O)c1ccc(C)cc1 | inactive | – |
| Cc1ccc(C)c(NC(=S)NNc2ccc(F)cc2F)c1 | – | inconclusive: 17.8 µM [falling, partial curve] |
| COc1cc(-c2nnc3n2CCCCC3)cc(OC)c1OC | inactive | – |
| O=C1C(=O)c2c(C(=O)c3ccccc3)coc2-c2ccccc21 | – | inconclusive: 16.4 µM [falling, single point] |
| COC(=O)Nc1ccccc1C(=O)N1CCN(c2ccc(C)cc2)CC1 | – | inconclusive: 20.6 µM [falling, partial curve] |
| COc1ccc(/C=N/NC(=O)c2ccc(N(C)S(=O)(=O)c3ccccc3)cc2)c(OC)c1 | – | inconclusive: 22.4 µM [falling, single point] |
| COC(=O)c1cccc(-c2noc(-c3ccccc3F)n2)c1 | inconclusive: -5.62% | – |

Retrieved by compound from the list above, four records:

| SMILES | activity change, negative = inhibition | Potency |
| --- | --- | --- |
| CCC(C)(C)n1nnnc1CN1CCc2ccccc21 | inconclusive: 9.92% | – |
| O=C(c1ccc(N2CCN(C(=O)c3ccc(F)c(F)c3)CC2)cc1)c1cccc(F)c1 | inconclusive: -4.66% | – |
| COc1ccc(Cl)cc1NC(=O)Nc1cc(C)on1 | – | inconclusive: 35.5 µM [rising, single point] |
| Cc1ccccc1C(=O)NCCCCc1ccccc1 | – | inconclusive: 3.26 µM [falling, partial curve, poor fit] |

(more compounds)

| SMILES | activity change, negative = inhibition | Potency |
| --- | --- | --- |
| CC(=O)c1ccc(OCCCC(=O)Nc2ccc(C)c(S(=O)(=O)N(C)C)c2)cc1 | inconclusive: 1.01% | – |
| COc1ccc(NC(=O)C(C)N2c3cccc4cccc(c34)S2(=O)=O)c(OC)c1 (stereo not given) | inconclusive: -12.7% | – |
| COc1cccc(-c2nnc(SCC(=O)N(C(C)C)C(C)C)o2)c1 | inconclusive: 12.3% | – |
| O=C(N1CCN=C1SCc1cccnc1)C12CC3CC(CC(C3)C1)C2 | inconclusive: -18.6% | – |
| O=C(c1ccccn1)N1CCN(c2cccc(C(F)(F)F)c2)CC1 | inactive | – |
| Cc1ccc(C)c(SCc2noc(C(=O)NC(C)C)c2C(=O)O)c1 | – | inconclusive: 35.5 µM [rising, single point] |
| CC(=O)Oc1ccccc1C1=NN(C(C)=O)C(c2ccccc2)C1 (stereo not given) | inconclusive: -18.8% | – |
| c1ccc(-c2nc3ccccc3nc2N2CCOCC2)cc1 | inactive | – |
| CC(=O)c1sc(NC(=O)C2(F)C(F)(F)C(F)(F)C(F)(F)C(F)(F)C2(F)F)nc1C | – | inconclusive: 17.8 µM [falling, partial curve, poor fit] |
| COc1ccc2cc(CN(Cc3cccs3)Cc3nnnn3Cc3ccccc3)c(=O)[nH]c2c1 | – | inconclusive: 23.1 µM [falling, partial curve] |
| CSc1ccccc1NC(=O)c1ccc(N2CCCC2=O)cc1 | inconclusive: -14.2% | – |
| COc1ccc(/C(N)=N/OC(=O)CSc2ccc(C)cc2)cc1OC | inconclusive: 16% | – |
| CCOc1ccccc1CN1CCC(CO)(CCOc2ccccc2)CC1 | – | inconclusive: 17.8 µM [falling, partial curve, poor fit] |
| CC(C)(C)c1ccc(-c2conc2N)cc1 | inconclusive: 9.39% | – |
| S=C(NNc1ccc2ccccc2c1)NC1CCCCC1 | – | inconclusive: 29.1 µM [rising, partial curve] |
| COC(=O)c1ccc(/C=C/c2ccc3cccc(OC)c3n2)cc1 | – | inconclusive: 0.00651 µM [rising, full curve, poor fit] |
| O=c1cc(O)nc[nH]1 | inconclusive: -22.4% | – |
| Cc1[nH]nc(-c2ccc(O)c(C)c2O)c1Oc1ccccc1 | – | inconclusive: 10.3 µM [falling, partial curve] |
| O=C(O)c1ccc(S(=O)(=O)c2ccccc2C(=O)O)c([N+](=O)[O-])c1 | inconclusive: -6.3% | – |
| COc1ccc(-c2oc3ccccc3c2C#CC(C)(C)O)cc1 | inconclusive: 25.9% | – |
| O=S(=O)(/N=C(/c1ccccc1)N1CCOCC1)c1ccc(F)cc1F | inconclusive: 1.09% | – |
| Cc1ccc(OCCOCCOc2ccc(Br)cc2/C=N\NC(=O)c2ccncc2)cc1 | – | inconclusive: 29.1 µM [falling, single point] |
| CCOC(=O)c1csc(NC(=O)CSc2nnc(C3CC3)n2C)n1 | inconclusive: 16.9% | – |
| O=C(CCN1C(=O)C2CC=CCC2C1=O)Nc1nc(-c2ccc(F)c(F)c2)cs1 (stereo not given) | inconclusive: -0.661% | – |
| CCN(CC)S(=O)(=O)c1ccc2c3c(cccc13)C(=O)S2 | inconclusive: 1.41% | – |
| CC(NC(=O)C1CCN(S(=O)(=O)c2cc([N+](=O)[O-])ccc2Cl)CC1)c1ccccc1 (stereo not given) | inactive | – |
| O=C(CSC1=NCCS1)NC(c1ccccc1)c1ccccc1 | – | inconclusive: 20.6 µM [falling, partial curve, poor fit] |

| SMILES | activity change, negative = inhibition | Potency |
| --- | --- | --- |
| COCC(=O)Nc1cc(C(=O)NCCc2ccccc2)ccc1Cl | – | inconclusive: 20.6 µM [falling, single point] |
| c1ccc(C(c2nnnn2C2CCCCC2)N2CCc3ccccc3C2)nc1 (stereo not given) | inconclusive: 1.63% | – |
| CC(=O)c1ccc(NC(=S)N2CCCCCC2)cc1 | inconclusive: 7.11% | – |
| C=CCOc1c(Br)cc(/C=N/Nc2ccc(C(=O)O)cc2)cc1OCC | inconclusive: 260% | – |
| Cc1ccn2cc(-c3ccc(NS(=O)(=O)c4ccccc4)cc3)nc2c1 | inactive | – |
| CCOC(=O)c1ccc2c(c1)N(C)C(=O)c1ccccc1S2 | inactive | – |
| O=C(OCC(=O)N1CCOCC1)c1ccc2[nH]c3c(c2c1)CCCC3 | inconclusive: 16.7% | – |
| CCN(CC(=O)NCc1ccccn1)S(=O)(=O)c1cc(Cl)ccc1Cl | inconclusive: -13.7% | – |
| CC(C)c1ccc(O)c(NC(=S)NC(=O)CCc2ccccc2)c1 | inconclusive: 2.58% | – |
| CCOC(=O)C1C(c2ccc(O)c(OC)c2)NC(=S)NC1(O)C(F)(F)F (stereo not given) | inconclusive: 0.364% | – |
| COc1cc(NC(=O)CSCC(=O)N(C)C2CCCCC2)cc(OC)c1 | inactive | – |
| CSc1ccc(CN(C)CC(=O)Nc2cccc(Br)c2)cc1 | – | inconclusive: 13 µM [falling, partial curve, poor fit] |
| COc1ccc2c(OC)c3ccoc3nc2c1OC | – | inconclusive: 25.1 µM [falling, single point] |
| O=C1OCCC1Sc1nc2ccccc2s1 (stereo not given) | inconclusive: 3.56% | – |
| CCOc1ccccc1N1CC(C(=O)N(C)Cc2cccnc2)CC1=O (stereo not given) | inactive | – |
| CC(C)n1c(SCC(=O)Nc2ccccc2)nc2c1c(=O)n(C)c(=O)n2C | – | inconclusive: 5.8 µM [falling, partial curve, poor fit] |
| O=C(CCNS(=O)(=O)c1ccccc1F)N1CCN(C/C=C/c2ccccc2)CC1 | inactive | – |
| CCOC(=O)CC(=O)Nc1c(C)cc(C)cc1C | inactive | – |
| Cc1cc(-c2ccccc2)nc2[nH]n(-c3ccccc3)c(=O)c12 | – | inconclusive: 1.46 µM [rising, partial curve, poor fit] |
| Cc1nc(C)c(-c2csc(Nc3ccc(O)cc3C)n2)s1 | inconclusive: -15.8% | – |
| Oc1ccc(N=Nc2cccc(Cl)c2)cc1C=Nc1ccc(N2CCOCC2)cc1 | inconclusive: 6.77% | – |
| O=C(O)C1CCC(N2C(=O)C3CCCCC3C2=O)CC1 (stereo not given) | inconclusive: 1.03% | – |
| COc1cccc(NC(=S)N(CCCN2CCOCC2)Cc2cn(C)c3ccccc23)c1 | inactive | – |
| CC(C)N1CN(c2ccccc2)C(=S)N(c2ccccc2)C1 | inactive | – |
| O=C1CC(c2ccccc2)CN1C(=O)c1cccc([N+](=O)[O-])c1 (stereo not given) | inconclusive: 6.18% | – |
| CCOC(=O)Cc1csc(NC(=O)CSc2nc(N)c3c(C)c(C)sc3n2)n1 | – | inconclusive: 0.651 µM [falling, partial curve, poor fit] |

— PubChem BioAssay AID493014 (National Center for Advancing Translational Sciences (NCATS), 2011)
